Assay results from paper PMC12667553, “TWF2 Drives Tumor Progression and Sunitinib Resistance in Renal Cell Carcinoma through Hippo Signaling Suppression” (Advanced Science, 2025).

Sequences of proteins named here, by UniProt entry; tags and fusion partners are left off.
UniProt P46937: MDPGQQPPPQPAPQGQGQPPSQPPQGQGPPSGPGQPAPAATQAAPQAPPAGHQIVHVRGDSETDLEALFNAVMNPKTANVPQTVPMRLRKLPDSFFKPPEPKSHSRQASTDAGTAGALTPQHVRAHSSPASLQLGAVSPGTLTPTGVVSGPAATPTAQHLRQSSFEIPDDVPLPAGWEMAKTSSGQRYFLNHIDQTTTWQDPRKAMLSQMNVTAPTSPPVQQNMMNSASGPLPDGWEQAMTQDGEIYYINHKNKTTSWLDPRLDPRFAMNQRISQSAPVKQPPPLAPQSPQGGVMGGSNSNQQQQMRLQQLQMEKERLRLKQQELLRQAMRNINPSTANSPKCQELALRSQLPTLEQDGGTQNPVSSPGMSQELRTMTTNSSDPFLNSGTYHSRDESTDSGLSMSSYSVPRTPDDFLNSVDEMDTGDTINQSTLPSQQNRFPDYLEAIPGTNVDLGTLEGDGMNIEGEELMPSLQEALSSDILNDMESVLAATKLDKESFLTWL

Molecular target: T1, Flag-tagged TWF2 (Twinfilin actin-binding protein 2), wild type, overexpressed in 786-O cells (human) (UniProt Q6IBS0)
T1 sequence: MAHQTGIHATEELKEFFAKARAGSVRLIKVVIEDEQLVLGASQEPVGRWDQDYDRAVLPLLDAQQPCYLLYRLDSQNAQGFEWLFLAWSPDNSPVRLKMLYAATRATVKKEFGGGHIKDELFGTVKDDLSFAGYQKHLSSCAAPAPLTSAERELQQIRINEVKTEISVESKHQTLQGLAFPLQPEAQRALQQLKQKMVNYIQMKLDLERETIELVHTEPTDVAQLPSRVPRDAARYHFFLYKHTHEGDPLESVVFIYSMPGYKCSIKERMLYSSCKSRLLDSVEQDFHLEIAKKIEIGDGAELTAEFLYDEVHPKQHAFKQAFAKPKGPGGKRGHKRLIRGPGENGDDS
Test: affinity purification with mass spectrometry; TWF2-Flag overexpressed in 786-O cells; lysate on anti-Flag magnetic beads overnight at 4 °C, eluted with Flag peptide; silver-stained SDS-PAGE, band at about 70 kDa cut out and read by LC-MS

binding: binds
Substance: Yes-associated protein (YAP), endogenous in RCC cells (from UniProt P46937 1-504)

These are yes or no findings as the source states them, for the method shown. In cells and extracts the contact can be indirect. These calls come from enrichment with a bait or labelling near it, and not all partners need be listed. Sequences can lack the tags named with a protein.
